No constants are given. Whether binding was seen depends on the method and setting. Binding seen in cells or lysates may run through a third protein. Some binding calls cover weakened binding; strength is not graded here.
What was measured:
[1] = molecular target: Flag–GSG1L (Germ Cell-Specific Gene 1-Like) (mouse) (UniProt D3Z7H4); experiment: co-IP; HEK293T cells co-expressing HA–GluA1 or HA–GluK1 with Flag–GSG1L; lysis buffer 25 mM Tris pH 7.5, 1% Triton X-100, 150 mM NaCl, 5% glycerol, 1 mM EDTA; anti-Flag M2 antibody and Protein G beads overnight at 4 °C; HA-tagged subunits probed with anti-HA
[2] = molecular target: GluA1 (endogenous, rat hippocampus) (rat (endogenous in hippocampus)) (UniProt P19490); experiment: co-IP; immunoprecipitation from hippocampal lysates of +/+ and GSG1L −/− rats; which protein was precipitated not given

Protein sequences, listed by entry. Tags and fused reporters are not part of them. Residues count along the entry.
UniProt D3Z7H4: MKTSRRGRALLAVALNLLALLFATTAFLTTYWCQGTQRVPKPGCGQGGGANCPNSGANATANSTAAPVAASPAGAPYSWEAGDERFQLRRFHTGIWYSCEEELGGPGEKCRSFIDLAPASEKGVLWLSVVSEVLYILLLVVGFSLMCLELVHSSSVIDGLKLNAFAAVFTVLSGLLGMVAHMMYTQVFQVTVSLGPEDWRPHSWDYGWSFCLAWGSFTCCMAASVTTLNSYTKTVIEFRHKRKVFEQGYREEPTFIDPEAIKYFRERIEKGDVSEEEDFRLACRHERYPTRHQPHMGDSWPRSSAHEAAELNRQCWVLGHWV
UniProt P19490, residues 19-907: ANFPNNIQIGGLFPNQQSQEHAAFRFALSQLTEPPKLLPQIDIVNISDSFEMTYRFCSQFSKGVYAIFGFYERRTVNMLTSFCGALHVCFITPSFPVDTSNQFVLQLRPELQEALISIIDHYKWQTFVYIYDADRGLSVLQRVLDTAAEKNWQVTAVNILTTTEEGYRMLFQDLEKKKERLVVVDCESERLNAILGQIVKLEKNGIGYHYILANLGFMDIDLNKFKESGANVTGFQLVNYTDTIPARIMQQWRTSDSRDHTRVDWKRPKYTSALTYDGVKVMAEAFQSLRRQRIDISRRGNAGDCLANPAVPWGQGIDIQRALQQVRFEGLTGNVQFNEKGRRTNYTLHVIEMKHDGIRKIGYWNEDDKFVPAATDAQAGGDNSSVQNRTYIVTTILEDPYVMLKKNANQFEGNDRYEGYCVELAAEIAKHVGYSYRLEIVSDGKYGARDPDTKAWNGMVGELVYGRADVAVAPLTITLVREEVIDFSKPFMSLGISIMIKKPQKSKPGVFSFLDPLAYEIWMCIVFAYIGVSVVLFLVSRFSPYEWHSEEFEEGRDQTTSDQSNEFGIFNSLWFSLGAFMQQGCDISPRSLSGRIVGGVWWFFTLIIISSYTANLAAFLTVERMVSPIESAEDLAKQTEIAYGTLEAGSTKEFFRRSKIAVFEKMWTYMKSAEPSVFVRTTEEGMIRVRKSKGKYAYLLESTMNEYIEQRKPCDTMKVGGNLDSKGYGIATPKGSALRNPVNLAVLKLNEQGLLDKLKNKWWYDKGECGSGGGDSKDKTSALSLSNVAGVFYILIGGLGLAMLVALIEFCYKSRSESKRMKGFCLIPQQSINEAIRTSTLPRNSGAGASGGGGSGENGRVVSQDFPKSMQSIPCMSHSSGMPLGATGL
UniProt P22756, residues 31-949: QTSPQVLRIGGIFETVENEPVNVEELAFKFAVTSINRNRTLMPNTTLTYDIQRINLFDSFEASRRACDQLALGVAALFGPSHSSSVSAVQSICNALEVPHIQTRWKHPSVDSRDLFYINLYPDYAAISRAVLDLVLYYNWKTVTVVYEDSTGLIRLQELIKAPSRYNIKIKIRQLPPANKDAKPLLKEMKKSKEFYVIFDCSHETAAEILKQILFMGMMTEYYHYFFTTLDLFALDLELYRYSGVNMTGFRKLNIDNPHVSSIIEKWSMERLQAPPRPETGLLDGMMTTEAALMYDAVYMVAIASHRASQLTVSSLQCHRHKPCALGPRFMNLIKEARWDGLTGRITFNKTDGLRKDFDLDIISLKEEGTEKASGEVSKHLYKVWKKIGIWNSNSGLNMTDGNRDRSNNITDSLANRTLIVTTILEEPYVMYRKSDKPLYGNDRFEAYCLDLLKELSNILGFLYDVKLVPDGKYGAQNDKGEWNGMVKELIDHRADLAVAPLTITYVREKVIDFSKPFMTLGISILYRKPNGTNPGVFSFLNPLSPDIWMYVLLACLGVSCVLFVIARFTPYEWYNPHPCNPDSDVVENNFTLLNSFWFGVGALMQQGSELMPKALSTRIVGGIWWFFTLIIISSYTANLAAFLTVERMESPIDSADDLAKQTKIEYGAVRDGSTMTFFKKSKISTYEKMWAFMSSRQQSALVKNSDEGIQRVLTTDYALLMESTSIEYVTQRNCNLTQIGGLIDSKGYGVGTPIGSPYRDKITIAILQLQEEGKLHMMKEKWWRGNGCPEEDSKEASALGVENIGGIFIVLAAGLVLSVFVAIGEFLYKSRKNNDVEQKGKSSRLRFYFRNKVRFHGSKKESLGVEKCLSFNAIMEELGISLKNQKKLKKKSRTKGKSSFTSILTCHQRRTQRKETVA

binding [1] | binding [2] | Molecule
no binding | – | HA–GluK1 (Kainate receptor GluK1 subunit) (from UniProt P22756 31-949)
– | binds | TARP γ2 (endogenous, rat hippocampus) (protein, UniProt Q71RJ2 1-323) MGLFDRGVQMLLTTVGAFAAFSLMTIAVGTDYWLYSRGVCKTKSVSENETSKKNEEVMTHSGLWRTCCLEGNFKGLCKQIDHFPEDADYEADTAEYFLRAVRASSIFPILSVILLFMGGLCIAASEFYKTRHNIILSAGIFFVSAGLSNIIGIIVYISANAGDPSKSDSKKNSYSYGWSFYFGALSFIIAEMVGVLAVHMFIDRHKQLRATARATDYLQASAITRIPSYRYRYQRRSRSSSRSTEPSHSRDASPVGVKGFNTLPSTEISMYTLSRDPLKAATTPTATYNSDRDNSFLQVHNCIQKDSKDSLHANTANRRTTPV
– | binds | CNIH2 (endogenous, rat hippocampus) (protein, UniProt Q5BJU5 1-160) MAFTFAAFCYMLTLVLCASLIFFVIWHIIAFDELRTDFKNPIDQGNPARARERLKNIERICCLLRKLVVPEYSIHGLFCLMFLCAAEWVTLGLNIPLLFYHLWRYFHRPADGSEVMYDAVSIMNADILNYCQKESWCKLAFYLLSFFYYLYSMVYTLVSF
